Experimental data as given in PubChem BioAssay AID588590 (National Center for Advancing Translational Sciences (NCATS), 2011).
In all, about 390,000 compounds went through this assay and about 4,000 (1%) were called active. Inconclusive results, whose numbers are uncertain, are shown with a selection of clear calls. Calls follow the shape of the dose curve; as a rule, active = well fitted inhibition curve with a large enough effect; inconclusive = small, poorly fitted or top-dose-only effect, or another doubt; inactive = no such curve, though single readings can be large or run the other way. Where the call is inconclusive, the potency comes from a doubtful curve fit.

By UniProt entry, the sequences of proteins in these tests, tags left out. Where a name states a change or a piece, a line headed by the entry shows the natural chain unless it says otherwise.
UniProt Q9UNA4: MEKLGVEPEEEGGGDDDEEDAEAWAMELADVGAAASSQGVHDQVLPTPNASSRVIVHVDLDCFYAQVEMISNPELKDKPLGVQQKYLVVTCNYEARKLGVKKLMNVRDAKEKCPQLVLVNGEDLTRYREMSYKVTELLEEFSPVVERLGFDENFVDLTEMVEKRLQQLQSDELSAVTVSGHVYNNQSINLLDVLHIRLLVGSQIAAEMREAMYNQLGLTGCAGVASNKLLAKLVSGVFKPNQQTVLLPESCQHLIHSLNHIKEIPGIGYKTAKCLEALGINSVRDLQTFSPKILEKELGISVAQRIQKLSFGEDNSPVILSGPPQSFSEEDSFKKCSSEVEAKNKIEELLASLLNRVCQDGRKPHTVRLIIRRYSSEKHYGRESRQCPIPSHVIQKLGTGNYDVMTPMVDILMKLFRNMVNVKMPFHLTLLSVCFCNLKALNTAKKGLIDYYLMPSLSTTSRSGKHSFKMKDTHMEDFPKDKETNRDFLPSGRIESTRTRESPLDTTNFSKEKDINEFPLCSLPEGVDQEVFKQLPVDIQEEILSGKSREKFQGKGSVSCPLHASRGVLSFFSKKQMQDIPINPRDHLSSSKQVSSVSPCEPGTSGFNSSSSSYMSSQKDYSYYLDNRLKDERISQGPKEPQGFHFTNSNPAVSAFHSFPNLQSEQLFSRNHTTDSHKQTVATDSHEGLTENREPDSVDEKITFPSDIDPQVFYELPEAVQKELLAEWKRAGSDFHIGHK

Target: DNA polymerase iota (Homo sapiens) (UniProt Q9UNA4)
Test: qHTS for Inhibitors of Polymerase Iota
Details: Pol iota fluorescent replication assay, 10 min; series mostly up to 115 µM
Summary of the method: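 Pol iota at 10 nM preincubated 15 min with compounds at room temperature; reaction started with fluorescent substrate, 50 nM final. Fluorescence read kinetically at 0 and 10 min; buffer-only wells as negative control.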
Potency is read from the fitted curve at half-maximal effect.

Row | Compound | Potency
1 | Cc1ccc(-c2nc(S(=O)(=O)c3ccc(C)cc3)c(SCC(=O)c3ccccc3)o2)cc1 | inconclusive: 70.8 µM [inhibitor, single point]
2 | CCOC(=O)C1=C(C)N=C2SCCC(=O)N2[C@@H]1/C=C/c1ccccc1 | inconclusive: 44.7 µM [inhibitor, partial curve, poor fit]
3 | Cc1ccc2c(c1)c(=O)c1ccccc1n2CCCC(=O)Nc1ccc(Cl)cc1C | inactive
4 | O=C(N/C=N/OCc1ccc(Cl)cc1Cl)NOCc1c(Cl)cccc1Cl | inconclusive: 14.1 µM [inhibitor, partial curve, poor fit]
5 | O=Cc1cccn1-c1cccc([N+](=O)[O-])c1 | inactive
6 | CCOC(=O)c1sc(NC(=O)CCN2CCCCCC2)c(C(=O)OCC)c1C | inconclusive: 35.5 µM [inhibitor, single point]
7 | O=C(N/N=C/c1ccc(N2CCOCC2)c([N+](=O)[O-])c1)c1ccc(F)cc1 | inactive
8 | Cc1nn(CC(=O)N2CCN(Cc3ccccc3)CC2)c(=O)c2ccccc12 | inconclusive: 20 µM [inhibitor, partial curve, poor fit]
9 | O=C(NCc1nc2ccccc2n1Cc1ccccc1Cl)c1ccccc1 | inactive
10 | COCC(C)n1c(SCc2nc(N)nc(Nc3ccccc3C)n2)nc2ccccc2c1=O (stereo not drawn) | inconclusive: 39.8 µM [inhibitor, single point]
11 | Oc1ccc(/C=N/NC(=S)Nc2cccnc2)c(O)c1O | inconclusive: 0.891 µM [inhibitor, full curve, poor fit]
12 | Oc1ccc2ccccc2c1C=NCc1cn2ccsc2n1 | inactive
13 | Cc1cccc(NC(=O)NNC(=O)COc2ccc3ccccc3c2)c1 | inactive
14 | Cc1ccc(Cl)cc1NC(=O)Nc1cn(CC(C)C)c(=O)c2ccccc12 | inconclusive: 56.2 µM [inhibitor, partial curve, poor fit]
15 | CC(C)(C)c1cnnn1-c1ccc(NC(=O)c2ccc3c(c2)OCO3)cc1 | inconclusive: 70.8 µM [inhibitor, single point]
16 | COc1ccccc1N1CCN(Cc2cc(Br)c(O)c3ncccc23)CC1 | inactive
17 | O=S(=O)(c1ccccc1Br)N1CCN(c2ncccn2)CC1 | inactive
18 | CCOc1ccc(S(=O)(=O)Nc2ccc3c(c2)OCO3)c2cccnc12 | inconclusive: 31.6 µM [inhibitor, partial curve, poor fit]
19 | Cc1ccc(C(=O)O/N=C(\N)Cc2ccc([N+](=O)[O-])cc2)c(Cl)c1 | inconclusive: 2.51 µM [inhibitor, full curve, poor fit]
20 | COc1ccc(C(=O)N2C(=S)NC(=O)/C2=C\c2ccc(C)cc2)cc1 | inconclusive: 44.7 µM [inhibitor, partial curve, poor fit]
21 | CN(Cc1ccccc1)c1ccc(-c2nc(-c3ccccc3)no2)cc1[N+](=O)[O-] | inactive
22 | COc1cccc(NC(=O)COc2ccc(N3CC(C(=O)NCC(C)C)CC3=O)cc2)c1 (stereo not drawn) | inconclusive: 112 µM [inhibitor, single point]

2 entries from above, in markdown.

| Row | Compound | Potency |
| --- | --- | --- |
| 13 | Cc1cccc(NC(=O)NNC(=O)COc2ccc3ccccc3c2)c1 | inactive |
| 14 | Cc1ccc(Cl)cc1NC(=O)Nc1cn(CC(C)C)c(=O)c2ccccc12 | inconclusive: 56.2 µM [inhibitor, partial curve, poor fit] |

(next part)

Row | Compound | Potency
23 | CC1CCCCN1CCNC(=O)C1CCN(S(=O)(=O)c2cccc3cccnc23)CC1 (stereo not drawn) | inconclusive: 35.5 µM [inhibitor, single point]
24 | O=C(/C=C/c1cccc(C(F)(F)F)c1)NNC(=O)c1ccncc1 | inconclusive: 35.5 µM [inhibitor, partial curve, poor fit]
25 | COc1ccc(-n2nnnc2SCC(=O)Nc2nc3c(s2)CCCC3)cc1 | inconclusive: 39.8 µM [inhibitor, single point]
26 | Nc1nc(-c2ccco2)nn1C(=O)CCc1ccccc1 | inactive
27 | O=C(c1cc(Br)ccc1O)N(Cc1ccco1)Cc1cccs1 | inactive
28 | COc1ccc(CCNC(=O)CSC2=NS(=O)(=O)c3cc(Cl)ccc3N2)cc1OC | inconclusive: 2.82 µM [inhibitor, full curve, poor fit]
29 | O=C(C[C@H]1C/C=C\CC[C@@H](Cc2ccc(F)cc2)C(=O)O[C@@H](c2ccccc2)CNC1=O)N[C@@H](CO)Cc1ccccc1 | inconclusive: 89.1 µM [inhibitor, single point]
30 | CC(=O)N(Cc1ccc(Br)cc1)c1ccccc1C(=O)O | inconclusive: 3.55 µM [inhibitor, full curve, poor fit]
31 | COc1cccc(/C(O)=C2/C(=O)C(=O)N(c3cc(C)on3)C2c2cccs2)c1 (stereo not drawn) | inconclusive: 20 µM [inhibitor, partial curve, poor fit]
32 | CN(CC(=O)Nc1ccc(Br)cc1)S(=O)(=O)c1cccc2nsnc12 | inactive
33 | Cc1c(NC(=O)C2C3C=CC(C3)C2C(=O)O)c(=O)n(-c2ccccc2)n1C (stereo not drawn) | inconclusive: 70.8 µM [inhibitor, single point]
34 | COC(=O)c1c(-c2cccs2)csc1NC(=O)c1cccnc1 | inconclusive: 12.6 µM [inhibitor, partial curve, poor fit]
35 | COc1ccc(NC(=O)c2oc3ccccc3c2NC(=O)c2cc(C)cc(C)c2)c(OC)c1 | inactive
36 | O=C(Nc1ccc(O)c2c(=O)cc(-c3cccc(Cl)c3)oc12)c1ccccc1Cl | inconclusive: 35.5 µM [inhibitor, single point]
37 | Cc1cc2oc(C(=O)N(Cc3ccc(N(C)C)cc3)CC3CCCO3)c(C)c2cc1Cl (stereo not drawn) | inactive
38 | Cc1cccc(NC(=O)c2cccc(C(=O)Nc3cccc(C)c3)c2)c1 | inconclusive: 89.1 µM [inhibitor, single point]
39 | COc1ccc(N)cc1-n1c(C)ccc1C | inconclusive: 4.47 µM [inhibitor, full curve, poor fit]
40 | CCOC(=O)c1sc2ncn(/N=C/N(C)C)c(=O)c2c1C | inconclusive: 89.1 µM [inhibitor, single point]
41 | CCc1nc(SCC(=O)Nc2nccs2)c2oc3ccccc3c2n1 | active: 31.6 µM
42 | CCn1c(SCC(=O)NC(=O)NCc2ccco2)nc2sc(C)c(C)c2c1=O | active: 28.2 µM
43 | Cc1ccc(N(CC(=O)Nc2ccc(OC(F)(F)F)cc2)S(=O)(=O)c2c(C)noc2C)cc1 | inconclusive: 100 µM [inhibitor, single point]
